# Measurements reported in PubChem BioAssay AID2662 (National Center for Advancing Translational Sciences (NCATS), 2010).
# Amino acid sequences for entries named in this document (tags omitted).
# UniProt Q03164, whole entry, looked up: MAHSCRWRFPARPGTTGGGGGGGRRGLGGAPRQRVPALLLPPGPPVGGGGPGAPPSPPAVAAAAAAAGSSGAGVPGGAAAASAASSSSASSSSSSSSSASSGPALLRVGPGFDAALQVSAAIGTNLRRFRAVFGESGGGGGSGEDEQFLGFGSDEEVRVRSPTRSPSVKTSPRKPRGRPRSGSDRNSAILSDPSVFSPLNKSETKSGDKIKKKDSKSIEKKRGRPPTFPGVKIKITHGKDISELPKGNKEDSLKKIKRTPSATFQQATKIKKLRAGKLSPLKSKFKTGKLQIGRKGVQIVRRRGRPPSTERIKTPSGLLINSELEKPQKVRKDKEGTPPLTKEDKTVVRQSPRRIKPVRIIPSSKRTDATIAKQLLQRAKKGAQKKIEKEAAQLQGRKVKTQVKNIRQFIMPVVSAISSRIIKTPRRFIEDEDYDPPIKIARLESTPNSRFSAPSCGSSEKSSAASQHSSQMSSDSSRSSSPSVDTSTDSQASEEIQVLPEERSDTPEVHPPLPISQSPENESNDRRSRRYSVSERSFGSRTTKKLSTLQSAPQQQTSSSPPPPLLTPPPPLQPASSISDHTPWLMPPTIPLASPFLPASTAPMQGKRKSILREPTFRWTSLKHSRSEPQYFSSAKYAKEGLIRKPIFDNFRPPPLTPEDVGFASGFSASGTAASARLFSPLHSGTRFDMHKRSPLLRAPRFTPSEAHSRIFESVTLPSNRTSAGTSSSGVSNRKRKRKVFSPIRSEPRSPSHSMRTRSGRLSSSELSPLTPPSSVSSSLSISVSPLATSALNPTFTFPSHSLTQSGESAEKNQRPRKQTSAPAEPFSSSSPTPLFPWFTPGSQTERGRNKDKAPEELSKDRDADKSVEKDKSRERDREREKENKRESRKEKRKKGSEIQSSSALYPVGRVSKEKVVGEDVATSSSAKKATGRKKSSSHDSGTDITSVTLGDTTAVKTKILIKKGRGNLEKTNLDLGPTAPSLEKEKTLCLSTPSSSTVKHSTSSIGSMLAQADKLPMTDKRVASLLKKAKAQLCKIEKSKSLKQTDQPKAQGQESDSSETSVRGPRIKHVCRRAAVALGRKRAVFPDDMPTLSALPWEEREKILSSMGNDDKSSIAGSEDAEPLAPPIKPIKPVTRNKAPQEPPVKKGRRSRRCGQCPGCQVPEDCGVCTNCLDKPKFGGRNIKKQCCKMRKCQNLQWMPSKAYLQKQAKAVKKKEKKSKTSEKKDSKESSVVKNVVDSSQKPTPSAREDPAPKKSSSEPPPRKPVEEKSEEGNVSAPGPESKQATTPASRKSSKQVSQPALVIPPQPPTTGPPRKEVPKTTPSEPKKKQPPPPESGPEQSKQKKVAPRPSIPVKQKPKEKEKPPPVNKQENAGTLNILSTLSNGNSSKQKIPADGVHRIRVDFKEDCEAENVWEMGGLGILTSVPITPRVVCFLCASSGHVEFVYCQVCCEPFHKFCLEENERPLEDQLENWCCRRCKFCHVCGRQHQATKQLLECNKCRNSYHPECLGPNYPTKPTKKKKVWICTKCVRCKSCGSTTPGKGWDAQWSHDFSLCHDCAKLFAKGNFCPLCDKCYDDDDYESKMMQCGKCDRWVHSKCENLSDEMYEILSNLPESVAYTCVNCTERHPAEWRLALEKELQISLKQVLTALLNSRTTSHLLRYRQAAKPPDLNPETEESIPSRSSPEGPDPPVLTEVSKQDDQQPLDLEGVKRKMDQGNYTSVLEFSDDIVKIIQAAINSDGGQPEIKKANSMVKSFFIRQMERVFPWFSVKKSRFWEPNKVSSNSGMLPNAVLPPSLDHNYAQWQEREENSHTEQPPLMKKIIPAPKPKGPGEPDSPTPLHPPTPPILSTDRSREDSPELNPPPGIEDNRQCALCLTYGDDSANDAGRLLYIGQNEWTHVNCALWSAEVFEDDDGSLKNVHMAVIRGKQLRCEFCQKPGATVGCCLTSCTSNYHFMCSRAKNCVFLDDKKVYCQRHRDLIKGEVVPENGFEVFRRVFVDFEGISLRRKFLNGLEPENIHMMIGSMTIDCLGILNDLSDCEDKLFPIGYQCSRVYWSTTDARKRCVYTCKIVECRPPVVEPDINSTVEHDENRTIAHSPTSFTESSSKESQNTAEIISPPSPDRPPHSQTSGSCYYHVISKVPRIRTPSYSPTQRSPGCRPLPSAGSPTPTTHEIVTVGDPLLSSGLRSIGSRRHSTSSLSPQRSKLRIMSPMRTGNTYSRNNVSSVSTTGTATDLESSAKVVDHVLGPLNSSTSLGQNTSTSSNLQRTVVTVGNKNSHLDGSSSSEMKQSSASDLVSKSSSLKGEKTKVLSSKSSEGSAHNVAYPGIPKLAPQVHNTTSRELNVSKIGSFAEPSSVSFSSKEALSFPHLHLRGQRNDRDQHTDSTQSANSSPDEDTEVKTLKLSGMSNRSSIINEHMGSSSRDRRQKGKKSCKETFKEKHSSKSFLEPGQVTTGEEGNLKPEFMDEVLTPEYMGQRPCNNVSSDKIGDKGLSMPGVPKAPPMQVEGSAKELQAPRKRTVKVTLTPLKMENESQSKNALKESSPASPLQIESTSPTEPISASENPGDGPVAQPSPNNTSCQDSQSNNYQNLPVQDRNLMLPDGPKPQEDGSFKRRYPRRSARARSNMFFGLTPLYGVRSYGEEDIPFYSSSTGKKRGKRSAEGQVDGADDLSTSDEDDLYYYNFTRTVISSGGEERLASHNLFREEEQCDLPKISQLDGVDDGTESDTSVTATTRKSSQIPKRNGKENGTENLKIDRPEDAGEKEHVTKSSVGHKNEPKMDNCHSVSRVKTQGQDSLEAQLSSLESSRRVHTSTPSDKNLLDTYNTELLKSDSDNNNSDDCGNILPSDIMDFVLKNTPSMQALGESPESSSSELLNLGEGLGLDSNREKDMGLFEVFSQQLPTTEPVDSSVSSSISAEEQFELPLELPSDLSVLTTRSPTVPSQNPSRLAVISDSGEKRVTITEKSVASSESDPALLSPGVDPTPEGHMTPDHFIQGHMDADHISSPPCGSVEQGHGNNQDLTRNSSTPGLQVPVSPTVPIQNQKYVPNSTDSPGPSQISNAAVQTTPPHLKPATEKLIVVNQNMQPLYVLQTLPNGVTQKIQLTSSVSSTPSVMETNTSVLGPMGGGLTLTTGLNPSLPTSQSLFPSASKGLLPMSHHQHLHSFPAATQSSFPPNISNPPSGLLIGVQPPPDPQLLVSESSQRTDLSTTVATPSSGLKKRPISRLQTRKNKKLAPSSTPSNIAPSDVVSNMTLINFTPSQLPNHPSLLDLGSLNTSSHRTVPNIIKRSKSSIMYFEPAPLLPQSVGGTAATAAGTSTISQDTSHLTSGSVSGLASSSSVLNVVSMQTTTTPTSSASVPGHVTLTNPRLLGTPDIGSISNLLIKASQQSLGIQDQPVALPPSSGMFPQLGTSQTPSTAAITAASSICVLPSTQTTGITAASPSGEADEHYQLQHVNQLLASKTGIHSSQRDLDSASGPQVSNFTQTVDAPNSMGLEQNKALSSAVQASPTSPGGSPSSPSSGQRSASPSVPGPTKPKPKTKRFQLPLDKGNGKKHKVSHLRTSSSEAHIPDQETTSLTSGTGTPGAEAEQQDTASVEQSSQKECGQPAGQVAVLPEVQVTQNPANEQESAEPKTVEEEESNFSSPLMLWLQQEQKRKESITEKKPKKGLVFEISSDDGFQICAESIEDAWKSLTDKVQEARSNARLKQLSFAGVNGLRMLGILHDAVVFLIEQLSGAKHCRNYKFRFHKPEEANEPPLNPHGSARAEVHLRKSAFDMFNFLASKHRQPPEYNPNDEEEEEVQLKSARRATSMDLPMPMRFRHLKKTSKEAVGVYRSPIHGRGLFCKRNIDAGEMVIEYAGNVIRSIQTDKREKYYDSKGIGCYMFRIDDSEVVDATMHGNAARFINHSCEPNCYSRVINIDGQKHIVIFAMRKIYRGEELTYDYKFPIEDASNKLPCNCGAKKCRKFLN
# In all, about 290,000 compounds went through this assay and about 110 (0.038%) were called active. This list was built around the results that the source calls inconclusive (neither active nor inactive); the mix of calls is not that of the screen. The call rests on the fitted dose curve; in most records, active means well fitted inhibition curve with a large enough effect in the polarisation, with a control signal flat (not every such curve was filed as active); inconclusive means small, poorly fitted or top-dose-only effect, or effect the other way, or a change in a side signal; inactive means no such curve, though single readings can be large or run the other way; the % refers to the polarisation. Where the call is inconclusive, the potency comes from a doubtful curve fit. A note “side channel” means that the fit belongs to a control or component signal, not to the main read-out.
# Target: Histone-lysine N-methyltransferase 2A (Homo sapiens) (UniProt Q03164)
# Assay: qHTS Fluorescence Polarization Assay for Inhibitors of MLL CXXC domain - DNA interaction
# Conditions: MLL-CXXC / FITC-HOXA9 DNA fluorescence polarization; activity change, negative = inhibition: at 115 µM (top of the series)
# Method in brief: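 Purified MLL-CXXC (added from a 7 uM solution) was preincubated 5 min at ambient with pinned compounds in 50 mM Tris-HCl pH 7.5, 50 mM NaCl, 1 mM DTT, 0.05% BSA. Fluorescein-labeled HOX-A9 DNA (50 nM solution) followed, 30 min, then polarization read.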
# Potency means the concentration at half of the fitted maximal effect.
SMILES,Potency,"activity change, negative = inhibition"
COc1ccc(C(=O)N2CCn3c(C)ccc3C2C)cc1 (stereo unspecified),"inconclusive: 35.5 µM [fluorescent, single point]",
COCC(=O)N(Cc1cc2cc(OC)ccc2[nH]c1=O)c1ccccc1OC,,inactive: 8.12%
Cn1c(=N)n(CC(=O)c2ccccc2)c2ccccc21,,inactive: 10.1%
Clc1ccc(CN2C3=NCCCN3c3ccccc32)cc1Cl,,inactive: -3.86%
N#Cc1nc(-c2ccc(F)cc2)oc1N1CCN(C(=O)c2ccco2)CC1,"inconclusive: 15.8 µM [fluorescent, side channel, single point]",
C=CCC1(CC=C)CCCN1C(=O)c1cc(COc2ccccc2SC)on1,,inactive: 6.78%
CCc1c(C(=O)NNC(=S)NC2CCCCC2)csc1C,"inconclusive: 44.7 µM [inhibitor, partial curve]",
COc1cccc(N2CC(C(=O)Nc3nnc(SCC(=O)N4CCOCC4)s3)CC2=O)c1 (stereo unspecified),"inconclusive: 11.2 µM [fluorescent, side channel, full curve, poor fit]",
O=C(Nc1nc2ccccc2[nH]1)c1ccc(Cl)c(S(=O)(=O)N2CCCC2)c1,"inconclusive: 28.2 µM [inhibitor, partial curve]",
CCN(CC)c1ccc(/C=C2/C(=O)c3ccc(C(=O)O)cc3C2=O)cc1,"inconclusive: 5.01 µM [fluorescent, side channel, full curve]",
COc1ccccc1CCN=C(N)NS(=O)(=O)c1cc(F)ccc1F,"inconclusive: 14.1 µM [fluorescent, side channel, single point]",
O=C1CCCC/C1=C/NCc1ccccc1,"inconclusive: 70.8 µM [fluorescent, side channel, single point]",
COc1ccccc1CNC(=O)CS(=O)(=O)c1ccccc1,"inconclusive: 8.91 µM [fluorescent, side channel, full curve]",
Nc1cc([N+](=O)[O-])cc2oc(-c3ccccc3)cc12,"inconclusive: 5.01 µM [fluorescent, side channel, partial curve]",
CCOC(=O)c1ccc(NC(=O)CCS(=O)(=O)c2ccc(Br)s2)cc1,,inactive: 8.77%
CCOC(=O)/C(C#N)=C1\SS/C(=C(/C#N)C(=O)OCC)S1,active: 17.8 µM,
O=C(O)c1ccc(Nc2cc(Cl)c3nonc3c2[N+](=O)[O-])cc1,,inactive: -18.2%
O=C(O)CCCCCN1C(=O)/C(=C\c2ccc(-c3ccc(Cl)cc3)o2)SC1=S,,inactive: 70.4%
COc1ccc(/C=N/N=C2/CC(C)(C)Cc3n[nH]c(=O)cc32)cc1,"inconclusive: 44.7 µM [fluorescent, side channel, partial curve]",
COCCNC(C)C(=O)Nc1ccc(Br)cc1 (stereo unspecified),"inconclusive: 39.8 µM [fluorescent, side channel, single point]",
c1ccc(Nc2c3c(nc4ccccc24)CCC3)cc1,"inconclusive: 28.2 µM [fluorescent, side channel, partial curve]",

# Nothing new here: entries from further up.
SMILES,Potency,"activity change, negative = inhibition"
C=CCC1(CC=C)CCCN1C(=O)c1cc(COc2ccccc2SC)on1,,inactive: 6.78%
CCc1c(C(=O)NNC(=S)NC2CCCCC2)csc1C,"inconclusive: 44.7 µM [inhibitor, partial curve]",

# The results go on:

SMILES,Potency,"activity change, negative = inhibition"
COC(C(=O)C(O)C(C)O)C1Cc2cc3cc(OC4CC(OC5CC(O)C(O)C(C)O5)C(O)C(C)O4)c(C)c(O)c3c(O)c2C(=O)C1OC1CC(OC2CC(OC3CC(C)(O)C(O)C(C)O3)C(O)C(C)O2)C(O)C(C)O1 (stereo unspecified),"inconclusive: 39.8 µM [inhibitor, full curve]",
O=C(Nc1ccc(Cl)cc1)c1cncs1,"inconclusive: 56.2 µM [fluorescent, side channel, single point]",
COc1ccc2sc(/C=C/c3ccccc3O)[n+](C)c2c1,"inconclusive: 35.5 µM [fluorescent, side channel, partial curve]",
CCOc1ccccc1NC(=S)Nc1ncccc1C,"inconclusive: 14.1 µM [inhibitor, single point]",
CC(=O)c1sc(NC(=O)c2ccc(F)cc2)nc1-c1ccccc1,"inconclusive: 63.1 µM [fluorescent, side channel, single point]",
c1ccc(N2N=C(c3cccs3)CC2c2ccco2)cc1 (stereo unspecified),,inactive: -4.14%
COc1ccc(NCc2cc(=O)oc3cc(NC(C)=O)ccc23)cc1,,inactive: -17.1%
Cc1ccc(Nc2cc(C)c3c(O)cccc3n2)cc1C,"inconclusive: 22.4 µM [quencher, side channel, partial curve]",
COc1ccccc1-c1n[nH]c(=S)n1Cc1ccccc1,"inconclusive: 35.5 µM [inhibitor, single point]",
CCN(CCO)c1ncnc2onc(-c3ccc(F)cc3)c12,"inconclusive: 15.8 µM [inhibitor, single point]",
CC(=O)Nc1cccc(NC(=O)C(=O)c2cn(CC(=O)N3CCCCC3)c3ccccc23)c1,"inconclusive: 63.1 µM [inhibitor, single point]",
CN1CCN(Cc2cccc(Oc3ccccc3)c2)CC1,,inactive: 3.15%
O=C(CCN1C(=O)c2ccccc2C1=O)C1=NN[C@@H]2C(=O)N(c3cccc(F)c3)C(=O)[C@H]12,"inconclusive: 35.5 µM [quencher, side channel, single point]",
COC(=O)CSc1ccc(S(=O)(=O)N2CCCCCC2)cc1[N+](=O)[O-],"inconclusive: 2.24 µM [fluorescent, side channel, full curve]",
CN(CC(=O)Nc1ccc(F)c(F)c1F)C(=O)C1=COCCO1,,inactive: -11.7%
O=C(O)CCN1C(=O)/C(=C\c2ccc(OCc3ccccc3)c(OCc3ccccc3)c2)SC1=S,"inconclusive: 39.8 µM [fluorescent, side channel, partial curve]",
COc1cc2c(cc1OC)/C(=C/C(=O)N1CCOCC1)NC(C)(C)C2,,inactive: 9.71%
Cc1ccc(S(=O)(=O)Nc2cccc3cccnc23)cc1,"inconclusive: 15.8 µM [inhibitor, partial curve]",
NS(=O)(=O)c1ccc(NC(=O)COC(=O)c2c3c(nc4ccccc24)/C(=C\c2ccc4c(c2)OCO4)CCC3)cc1,"inconclusive: 3.16 µM [fluorescent, side channel, full curve]",
O=[N+]([O-])/C=C\c1ccc(N2CCCC2)c(F)c1,,inactive: 1.99%
